According to PMC6657678, “The Bub1-TPR Domain Interacts Directly with Mad3 to Generate Robust Spindle Checkpoint Arrest” (Current Biology, 2019):
These are yes or no findings as the source states them, for the method shown. For some assays here: In cells and extracts the contact can be indirect. Some results given as binding are weak or reduced against the parent protein; the word gives no strength. Where a sequence is shown, tags or fusion partners need not be part of it. Blank lines part the entries; values can stand above or below the binder they belong to.

Tests used:
[1] = molecular target: T1, NLS-rTetR-mCherry-2xFLAG-Bub1 full length (fission yeast) (S. pombe) (UniProt O94751); assay: tethering assay (co-recruitment to a tetO array, fluorescence microscopy); TetR-mCherry-Bub1 fragments tethered on a tetO array in S. pombe cells (mph1Δ bub1Δ); Mad3-GFP imaged
T1 sequence: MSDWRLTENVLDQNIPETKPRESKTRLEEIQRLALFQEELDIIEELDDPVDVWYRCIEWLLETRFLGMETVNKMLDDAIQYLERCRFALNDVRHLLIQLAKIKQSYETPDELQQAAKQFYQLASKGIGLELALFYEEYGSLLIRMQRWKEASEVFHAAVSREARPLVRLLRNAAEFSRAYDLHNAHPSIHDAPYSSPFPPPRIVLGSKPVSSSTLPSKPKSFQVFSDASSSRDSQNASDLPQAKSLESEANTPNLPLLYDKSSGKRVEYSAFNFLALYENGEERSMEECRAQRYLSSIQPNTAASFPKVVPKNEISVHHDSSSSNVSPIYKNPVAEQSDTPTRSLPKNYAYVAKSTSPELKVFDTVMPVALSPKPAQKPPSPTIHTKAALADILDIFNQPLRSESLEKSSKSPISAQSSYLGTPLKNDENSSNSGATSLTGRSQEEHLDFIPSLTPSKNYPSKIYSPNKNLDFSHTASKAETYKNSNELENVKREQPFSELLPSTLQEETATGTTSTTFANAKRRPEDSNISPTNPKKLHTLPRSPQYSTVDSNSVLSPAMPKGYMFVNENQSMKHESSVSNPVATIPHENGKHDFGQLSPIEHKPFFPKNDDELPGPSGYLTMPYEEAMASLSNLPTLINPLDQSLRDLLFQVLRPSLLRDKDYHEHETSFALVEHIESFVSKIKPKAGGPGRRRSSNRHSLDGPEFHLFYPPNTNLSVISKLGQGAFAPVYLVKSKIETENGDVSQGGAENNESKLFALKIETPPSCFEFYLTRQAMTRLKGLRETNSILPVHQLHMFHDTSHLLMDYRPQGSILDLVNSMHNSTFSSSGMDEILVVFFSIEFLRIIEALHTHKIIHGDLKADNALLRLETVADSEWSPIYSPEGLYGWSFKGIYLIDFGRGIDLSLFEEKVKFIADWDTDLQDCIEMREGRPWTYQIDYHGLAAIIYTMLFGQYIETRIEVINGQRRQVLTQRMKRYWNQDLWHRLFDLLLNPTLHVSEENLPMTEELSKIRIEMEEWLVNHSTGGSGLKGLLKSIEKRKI

[2] = molecular target: T2, Bub1-3FLAG (budding yeast) (S. cerevisiae) (UniProt P41695); assay: co-IP; budding yeast lysate in Buffer H (25 mM HEPES pH 8.0, 150 mM KCl, 0.1% NP40); anti-Flag (M2) or anti-GFP Protein G Dynabeads, 4°, 3 h; cells induced with galactose (GAL-MPS1) for 2 h; SPC105 or spc105-6A cells
T2 sequence: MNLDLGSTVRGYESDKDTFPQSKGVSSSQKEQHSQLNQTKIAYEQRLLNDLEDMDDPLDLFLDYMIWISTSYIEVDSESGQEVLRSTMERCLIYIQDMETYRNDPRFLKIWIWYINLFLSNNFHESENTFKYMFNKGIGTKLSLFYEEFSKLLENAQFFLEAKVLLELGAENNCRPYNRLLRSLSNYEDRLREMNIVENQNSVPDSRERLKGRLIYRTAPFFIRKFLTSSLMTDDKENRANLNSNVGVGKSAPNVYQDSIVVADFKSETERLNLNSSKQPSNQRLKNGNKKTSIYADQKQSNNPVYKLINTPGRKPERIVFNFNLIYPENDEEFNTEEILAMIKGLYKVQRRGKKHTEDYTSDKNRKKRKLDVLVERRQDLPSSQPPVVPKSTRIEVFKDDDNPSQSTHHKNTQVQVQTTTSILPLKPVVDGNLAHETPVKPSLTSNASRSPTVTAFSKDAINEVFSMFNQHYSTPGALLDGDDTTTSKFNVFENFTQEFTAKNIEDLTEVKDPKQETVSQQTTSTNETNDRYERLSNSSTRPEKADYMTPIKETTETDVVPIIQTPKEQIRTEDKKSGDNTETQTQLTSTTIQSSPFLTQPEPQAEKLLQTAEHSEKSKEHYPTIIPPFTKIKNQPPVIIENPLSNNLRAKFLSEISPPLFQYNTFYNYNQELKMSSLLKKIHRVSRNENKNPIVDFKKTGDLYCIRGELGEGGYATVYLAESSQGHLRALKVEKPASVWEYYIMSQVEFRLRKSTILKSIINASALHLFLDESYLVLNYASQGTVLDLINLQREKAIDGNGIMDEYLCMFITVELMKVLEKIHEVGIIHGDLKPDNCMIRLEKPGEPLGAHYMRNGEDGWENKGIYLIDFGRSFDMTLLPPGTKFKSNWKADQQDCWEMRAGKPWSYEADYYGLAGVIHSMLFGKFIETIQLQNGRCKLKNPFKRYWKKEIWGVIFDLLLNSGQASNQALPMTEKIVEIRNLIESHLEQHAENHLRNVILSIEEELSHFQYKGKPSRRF

[3] = molecular target: T3, bub1(T485A, T509A, T518A)-9myc (budding yeast) (S. cerevisiae) (UniProt P41695); assay: as above
T3 sequence: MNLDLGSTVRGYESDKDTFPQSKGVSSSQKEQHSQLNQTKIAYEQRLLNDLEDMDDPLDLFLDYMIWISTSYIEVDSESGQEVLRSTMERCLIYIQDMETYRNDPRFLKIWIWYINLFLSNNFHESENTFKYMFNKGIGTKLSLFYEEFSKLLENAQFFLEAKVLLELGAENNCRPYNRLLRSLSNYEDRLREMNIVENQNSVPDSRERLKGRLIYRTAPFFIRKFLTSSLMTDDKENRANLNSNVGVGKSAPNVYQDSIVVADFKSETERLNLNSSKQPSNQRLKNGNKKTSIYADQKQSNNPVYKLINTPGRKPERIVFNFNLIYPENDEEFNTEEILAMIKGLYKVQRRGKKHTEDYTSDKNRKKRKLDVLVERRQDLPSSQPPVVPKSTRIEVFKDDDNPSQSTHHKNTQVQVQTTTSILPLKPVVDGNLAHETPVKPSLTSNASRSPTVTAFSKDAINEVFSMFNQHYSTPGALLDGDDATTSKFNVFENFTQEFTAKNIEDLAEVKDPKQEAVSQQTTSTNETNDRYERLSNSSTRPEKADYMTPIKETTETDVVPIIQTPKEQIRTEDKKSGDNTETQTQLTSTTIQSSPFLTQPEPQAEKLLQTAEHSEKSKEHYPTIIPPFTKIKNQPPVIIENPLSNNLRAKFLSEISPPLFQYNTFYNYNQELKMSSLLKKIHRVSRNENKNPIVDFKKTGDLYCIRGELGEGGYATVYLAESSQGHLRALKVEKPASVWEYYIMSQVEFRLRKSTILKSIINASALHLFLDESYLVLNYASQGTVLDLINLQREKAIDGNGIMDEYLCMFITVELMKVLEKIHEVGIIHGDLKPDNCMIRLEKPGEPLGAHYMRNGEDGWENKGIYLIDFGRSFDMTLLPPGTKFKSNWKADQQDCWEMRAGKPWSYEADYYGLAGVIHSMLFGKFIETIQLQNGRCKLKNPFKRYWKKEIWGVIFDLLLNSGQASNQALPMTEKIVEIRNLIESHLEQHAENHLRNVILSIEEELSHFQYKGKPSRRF

[4] = molecular target: T1, NLS-rTetR-mCherry-2xFLAG-Bub1 full length (fission yeast) (S. pombe); assay: co-IP; fission yeast lysate (50 mM HEPES pH 7.6, 75 mM KCl, 0.1% Triton X-100); anti-FLAG Dynabeads 15-20 min at 4°C, blots anti-Bub1 and anti-Mad1; cells harvested after 16 h of TetR-Mph1(303-678) induction (SynCheck)
[5] = molecular target: T1, NLS-rTetR-mCherry-2xFLAG-Bub1 full length (fission yeast) (S. pombe); assay: condition: only without thiamine wash-out (no Mph1 induction, no mitotic arrest); co-IP; as a2, but cells without thiamine wash-out (no Mph1 induction, no mitotic arrest); Figure S3A

binding [1]: binds
B1: Mad3-GFP (fission yeast) (protein, UniProt O59767 1-310)
chain: MEPLDAGKNWVHMDVIEQSKENIEPRKAGHSASALAKSSSRNHTEKEVAGLQKERMGHERKIETSESLDDPLQVWIDYIKWTLDNFPQGETKTSGLVTLLERCTREFVRNPLYKDDVRYLRIWMQYVNYIDEPVELFSFLAHHHIGQESSIFYEEYANYFESRGLFQKADEVYQKGKRMKAKPFLRFQQKYQQFTHRWLEFAPQSFSSNTNSVNPLQTTFESTNIQEISQSRTKISKPKFKFSVYSDADGSGKDGQPGTWQTLGTVDQRRKENNISATSWVGEKLPLKSPRKLDPLGKFQVHCDEEVSKE

binding [2]: binds
binding [3]: no binding
B2: Mad1-3GFP (budding yeast) (protein, UniProt P40957 1-749)
chain: MDVRAALQCFFSALSGRFTGKKLGLEIYSIQYKMSNSGGSSPFLESPGGSPDVGSTNGQSNRQIQALQFKLNTLQNEYEIEKLQLQKQTNILEKKYKATIDELEKALNDTKYLYESNDKLEQELKSLKERSANSMNDKDKCIEELRTTLQNKDLEMETLRQQYDSKLSKVTNQCDHFKLEAESSHSLLMKYEKEIKRQSVDIKDLQHQVMEKDDELSSVKASKMINSHPNYSTEEFNELTEMNKMIQDQVQYTKELELANMQQANELKKLKQSQDTSTFWKLENEKLQNKLSQLHVLESQYENLQLENIDLKSKLTKWEIYNDSDDDDDNNVNNNDNNNNNKNDNNNDNNNDTSNNNNINNNNRTKNNIRNNPEEIIRDWKLTKKECLILTDMNDKLRLDNNNLKLLNDEMALERNQILDLNKNYENNIVNLKRLNHELEQQKSLSFEECRLLREQLDGLYSAQNNALLEVENSETHASNKNVNEDMNNLIDTYKNKTEDLTNELKKLNDQLLSNSNDVETQRKKRKLTSDQIGLNYSQRLNELQLENVSVSRELSKAQTTIQLLQEKLEKLTKLKEKKIRILQLRDGPFIKDQFIKKNKLLLLEKENADLLNELKKNNPAVETVPISVYDSLNFELKQFEQEVFKSNKRFSRLKQVFNNKSLEFIDVVNSLLGFKLEFQQDSRVKIFSCFKPEKYLIADLNENTLKSNLDADIEGWDDLMNLWVEDRGQLPCFLATITLRLWEQRQAK

binding [4]: binds
binding [5]: no binding
B3: Mad1 (fission yeast) (protein, UniProt P87169 1-676)
chain: MADSPRDPFQSRSQLPRFLATSVKKPNLKKPSVNSANETKNPKLASLEFQLENLKNDLKRKELEFEREQIELQRKLAEEHEQKNSLQLRLTLVEKQLEEQSTSYQKEIEEVRNEKEATQVKIHELLDAKWKEIAELKTQIEKNDQALSEKNHEVMVSNQALQMKDTNLTNLEKLFADSREQLETKCKELAAAEQQLQELSVHNQQLEESIKQVSSSIELEKINAEQRLQISELEKLKAAQEERIEKLSSNNRNVEILKEEKNDLESKLYRFEEYRDKVATLELENEKIQTELNSWKSLITNELPTPEAVSNKLVFLQNTNANLGERVSSLESQLSNKPANQPLGANEKDAAHITELETKLKELHEQNRRLQRQKSLATQEIDLLRENLKSYDDEEAILSEKNTDMKKLERIEGLVKLVDEYKLKLESMPVSLDVDETSDEVSLQKRRRKNEHKDAGYVTELYRKNQHLLFQVKEKTNIEAFLREQIITLESSIATLRQELAQVTEINSCRVLQHRSNPTLKYERIKAAQLEMLNAENSALKALLEDKKVDCLPIQSFKIAERKALDLKKEVAEREKRIQRLKEIFSVKSLEFREAVFSLFGYKLDFMPNGSVRVTSTYSREDNTAFIFDGESSTMKLVGNPSGPEFERLIRFWCDERKTIPGMLAALTLELLDKND
